# Data published in doi:10.1101/2021.05.10.443506.
# Chains of the proteins cited; added tags and fusions are not shown.
# UniProt P12270: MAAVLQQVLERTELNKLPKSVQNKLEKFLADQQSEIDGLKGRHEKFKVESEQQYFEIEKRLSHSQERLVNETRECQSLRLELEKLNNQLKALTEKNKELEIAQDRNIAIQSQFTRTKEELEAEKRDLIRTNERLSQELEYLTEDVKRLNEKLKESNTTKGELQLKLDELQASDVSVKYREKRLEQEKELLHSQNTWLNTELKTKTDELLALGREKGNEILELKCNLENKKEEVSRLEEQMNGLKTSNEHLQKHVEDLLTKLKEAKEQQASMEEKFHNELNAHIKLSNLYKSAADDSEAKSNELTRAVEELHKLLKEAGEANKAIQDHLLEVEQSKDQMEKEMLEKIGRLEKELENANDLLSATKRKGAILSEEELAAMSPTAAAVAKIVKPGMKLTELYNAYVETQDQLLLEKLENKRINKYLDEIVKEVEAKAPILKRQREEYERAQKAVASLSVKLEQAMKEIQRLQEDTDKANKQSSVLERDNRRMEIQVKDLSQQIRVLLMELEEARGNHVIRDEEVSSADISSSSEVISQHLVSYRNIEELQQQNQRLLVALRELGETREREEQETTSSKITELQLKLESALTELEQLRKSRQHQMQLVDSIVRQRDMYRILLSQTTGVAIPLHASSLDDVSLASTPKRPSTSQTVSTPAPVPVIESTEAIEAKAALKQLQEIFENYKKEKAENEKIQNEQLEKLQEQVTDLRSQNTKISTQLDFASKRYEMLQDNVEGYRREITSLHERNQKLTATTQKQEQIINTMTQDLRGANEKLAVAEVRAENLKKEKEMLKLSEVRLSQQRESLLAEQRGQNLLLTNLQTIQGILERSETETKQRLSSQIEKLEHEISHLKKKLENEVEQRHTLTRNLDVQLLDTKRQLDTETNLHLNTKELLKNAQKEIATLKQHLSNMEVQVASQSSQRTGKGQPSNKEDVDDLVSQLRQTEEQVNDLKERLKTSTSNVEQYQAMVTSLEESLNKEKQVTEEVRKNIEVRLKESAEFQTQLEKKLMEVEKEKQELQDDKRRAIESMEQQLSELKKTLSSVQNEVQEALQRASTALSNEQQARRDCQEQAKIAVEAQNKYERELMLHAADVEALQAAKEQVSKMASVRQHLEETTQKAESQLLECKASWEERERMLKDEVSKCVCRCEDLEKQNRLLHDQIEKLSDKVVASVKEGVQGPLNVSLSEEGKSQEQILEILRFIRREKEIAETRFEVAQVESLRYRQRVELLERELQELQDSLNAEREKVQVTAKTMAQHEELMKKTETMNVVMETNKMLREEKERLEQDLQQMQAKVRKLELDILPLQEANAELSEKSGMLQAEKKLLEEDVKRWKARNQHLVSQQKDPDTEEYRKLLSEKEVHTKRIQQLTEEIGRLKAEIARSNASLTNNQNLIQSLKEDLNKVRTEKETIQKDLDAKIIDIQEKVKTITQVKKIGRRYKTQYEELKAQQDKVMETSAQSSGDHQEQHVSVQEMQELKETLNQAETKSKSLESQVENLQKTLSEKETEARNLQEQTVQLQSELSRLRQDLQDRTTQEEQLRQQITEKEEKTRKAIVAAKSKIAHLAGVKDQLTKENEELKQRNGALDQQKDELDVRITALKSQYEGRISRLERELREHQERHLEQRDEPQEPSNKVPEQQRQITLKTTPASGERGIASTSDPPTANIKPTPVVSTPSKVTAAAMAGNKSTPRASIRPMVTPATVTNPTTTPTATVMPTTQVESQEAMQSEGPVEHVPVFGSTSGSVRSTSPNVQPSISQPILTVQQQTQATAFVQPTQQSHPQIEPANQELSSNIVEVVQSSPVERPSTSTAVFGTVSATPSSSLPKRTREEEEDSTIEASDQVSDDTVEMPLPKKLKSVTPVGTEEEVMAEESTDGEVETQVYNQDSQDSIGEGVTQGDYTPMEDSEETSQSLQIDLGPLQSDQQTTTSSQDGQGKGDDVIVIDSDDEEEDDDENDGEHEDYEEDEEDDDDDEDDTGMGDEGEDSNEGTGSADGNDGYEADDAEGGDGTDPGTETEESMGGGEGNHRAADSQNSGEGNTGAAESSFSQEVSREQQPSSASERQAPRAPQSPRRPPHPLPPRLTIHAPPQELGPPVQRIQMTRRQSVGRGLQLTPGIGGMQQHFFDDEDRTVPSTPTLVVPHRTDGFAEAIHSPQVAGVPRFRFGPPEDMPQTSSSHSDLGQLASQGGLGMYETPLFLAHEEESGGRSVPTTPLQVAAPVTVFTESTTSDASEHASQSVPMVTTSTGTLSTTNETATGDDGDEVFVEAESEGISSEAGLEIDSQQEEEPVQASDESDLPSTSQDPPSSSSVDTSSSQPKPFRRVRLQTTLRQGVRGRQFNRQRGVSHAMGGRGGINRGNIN
# UniProt Q9UQE7: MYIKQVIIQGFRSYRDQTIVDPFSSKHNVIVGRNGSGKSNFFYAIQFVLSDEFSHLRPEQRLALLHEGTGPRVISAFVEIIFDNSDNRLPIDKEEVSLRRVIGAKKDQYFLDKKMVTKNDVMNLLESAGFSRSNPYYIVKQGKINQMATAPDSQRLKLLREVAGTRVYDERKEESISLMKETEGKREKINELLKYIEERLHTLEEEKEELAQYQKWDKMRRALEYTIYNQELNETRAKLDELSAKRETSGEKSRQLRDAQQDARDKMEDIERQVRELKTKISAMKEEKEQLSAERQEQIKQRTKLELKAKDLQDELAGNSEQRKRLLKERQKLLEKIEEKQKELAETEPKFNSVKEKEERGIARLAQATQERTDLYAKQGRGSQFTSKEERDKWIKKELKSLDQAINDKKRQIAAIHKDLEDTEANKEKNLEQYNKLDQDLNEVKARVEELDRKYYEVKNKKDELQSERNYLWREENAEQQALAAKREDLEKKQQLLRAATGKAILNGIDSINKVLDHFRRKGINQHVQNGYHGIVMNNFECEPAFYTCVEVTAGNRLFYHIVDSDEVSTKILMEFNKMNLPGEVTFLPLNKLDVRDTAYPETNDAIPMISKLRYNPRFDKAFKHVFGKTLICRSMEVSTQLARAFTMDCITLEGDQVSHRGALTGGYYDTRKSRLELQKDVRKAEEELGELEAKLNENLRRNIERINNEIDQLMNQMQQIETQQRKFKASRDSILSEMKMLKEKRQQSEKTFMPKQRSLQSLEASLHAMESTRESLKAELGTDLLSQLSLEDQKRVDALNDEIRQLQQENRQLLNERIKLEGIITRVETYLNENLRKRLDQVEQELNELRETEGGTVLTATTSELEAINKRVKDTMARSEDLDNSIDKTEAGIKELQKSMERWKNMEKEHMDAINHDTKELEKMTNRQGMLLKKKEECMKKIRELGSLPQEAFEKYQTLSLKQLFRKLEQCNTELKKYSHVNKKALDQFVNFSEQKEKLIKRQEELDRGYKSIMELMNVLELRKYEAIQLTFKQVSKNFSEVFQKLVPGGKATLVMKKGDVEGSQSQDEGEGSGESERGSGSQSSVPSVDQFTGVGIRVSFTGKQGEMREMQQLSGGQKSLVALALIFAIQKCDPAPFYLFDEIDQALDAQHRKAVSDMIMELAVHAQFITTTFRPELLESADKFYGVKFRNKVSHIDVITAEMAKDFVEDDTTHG
# UniProt Q15648: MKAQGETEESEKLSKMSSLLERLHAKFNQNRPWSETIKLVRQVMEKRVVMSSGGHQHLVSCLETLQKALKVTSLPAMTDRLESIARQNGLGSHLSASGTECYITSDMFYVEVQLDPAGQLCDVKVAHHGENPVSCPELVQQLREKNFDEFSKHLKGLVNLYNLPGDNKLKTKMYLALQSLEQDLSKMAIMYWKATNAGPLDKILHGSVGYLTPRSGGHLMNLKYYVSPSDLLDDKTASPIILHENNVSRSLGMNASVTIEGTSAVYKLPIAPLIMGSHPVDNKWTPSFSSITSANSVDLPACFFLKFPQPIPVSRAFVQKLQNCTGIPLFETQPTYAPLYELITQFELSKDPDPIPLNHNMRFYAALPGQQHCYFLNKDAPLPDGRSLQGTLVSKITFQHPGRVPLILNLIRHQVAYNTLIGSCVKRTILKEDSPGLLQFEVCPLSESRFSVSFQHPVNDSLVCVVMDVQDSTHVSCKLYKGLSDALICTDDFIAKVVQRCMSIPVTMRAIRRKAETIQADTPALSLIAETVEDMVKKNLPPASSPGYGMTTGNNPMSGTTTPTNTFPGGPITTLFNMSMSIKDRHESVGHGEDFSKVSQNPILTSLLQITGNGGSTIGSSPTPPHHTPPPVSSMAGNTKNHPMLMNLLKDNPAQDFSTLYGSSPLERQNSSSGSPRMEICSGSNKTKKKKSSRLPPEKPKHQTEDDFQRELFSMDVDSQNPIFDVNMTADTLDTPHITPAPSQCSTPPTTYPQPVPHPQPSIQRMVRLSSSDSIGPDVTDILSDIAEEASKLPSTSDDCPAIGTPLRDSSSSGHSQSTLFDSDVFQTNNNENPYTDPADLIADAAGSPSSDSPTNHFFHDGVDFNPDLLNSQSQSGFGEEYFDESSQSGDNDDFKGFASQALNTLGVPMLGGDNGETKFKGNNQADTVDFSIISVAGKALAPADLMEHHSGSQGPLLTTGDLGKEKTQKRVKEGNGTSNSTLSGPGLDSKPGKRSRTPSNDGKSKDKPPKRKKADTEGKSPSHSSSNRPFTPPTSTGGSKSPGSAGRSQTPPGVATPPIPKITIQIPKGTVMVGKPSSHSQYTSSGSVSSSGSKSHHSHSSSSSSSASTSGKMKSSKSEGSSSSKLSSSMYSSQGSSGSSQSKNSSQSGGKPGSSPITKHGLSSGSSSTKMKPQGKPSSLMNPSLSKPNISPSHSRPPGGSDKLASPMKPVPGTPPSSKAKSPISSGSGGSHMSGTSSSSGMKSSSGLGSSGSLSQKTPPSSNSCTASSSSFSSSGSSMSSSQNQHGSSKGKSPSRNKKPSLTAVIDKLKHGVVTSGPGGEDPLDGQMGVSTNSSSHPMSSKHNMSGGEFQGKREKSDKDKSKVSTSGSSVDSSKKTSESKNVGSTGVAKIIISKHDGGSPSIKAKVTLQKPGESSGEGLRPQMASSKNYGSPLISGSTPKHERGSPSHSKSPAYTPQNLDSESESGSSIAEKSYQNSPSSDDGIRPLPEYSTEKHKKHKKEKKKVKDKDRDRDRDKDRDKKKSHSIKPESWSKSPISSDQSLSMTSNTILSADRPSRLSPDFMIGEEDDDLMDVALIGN
# No constants are given. Whether binding was seen depends on the method and setting. In cells and extracts the contact can be indirect. Some binding calls cover weakened binding; strength is not graded here.
# Molecular target: nucleoporin TPR (human (endogenous in U2OS)) (UniProt P12270)
# Assay: proximity ligation
row,binding,Substance
1,binds,SMC3 (from UniProt Q9UQE7 1-1217)
2,binds,Med1 (from UniProt Q15648 1-1581)
3,binds,p300 (from UniProt Q09472 1-2414)
